Assay results reported in the supplement of paper PMC10849652.
The list shows a part of the results.

The chains behind the UniProt entries cited, without tags or fusion partners. Where a name states a change or a piece, a line headed by the entry shows the natural chain unless it says otherwise.
UniProt Q9BTE3: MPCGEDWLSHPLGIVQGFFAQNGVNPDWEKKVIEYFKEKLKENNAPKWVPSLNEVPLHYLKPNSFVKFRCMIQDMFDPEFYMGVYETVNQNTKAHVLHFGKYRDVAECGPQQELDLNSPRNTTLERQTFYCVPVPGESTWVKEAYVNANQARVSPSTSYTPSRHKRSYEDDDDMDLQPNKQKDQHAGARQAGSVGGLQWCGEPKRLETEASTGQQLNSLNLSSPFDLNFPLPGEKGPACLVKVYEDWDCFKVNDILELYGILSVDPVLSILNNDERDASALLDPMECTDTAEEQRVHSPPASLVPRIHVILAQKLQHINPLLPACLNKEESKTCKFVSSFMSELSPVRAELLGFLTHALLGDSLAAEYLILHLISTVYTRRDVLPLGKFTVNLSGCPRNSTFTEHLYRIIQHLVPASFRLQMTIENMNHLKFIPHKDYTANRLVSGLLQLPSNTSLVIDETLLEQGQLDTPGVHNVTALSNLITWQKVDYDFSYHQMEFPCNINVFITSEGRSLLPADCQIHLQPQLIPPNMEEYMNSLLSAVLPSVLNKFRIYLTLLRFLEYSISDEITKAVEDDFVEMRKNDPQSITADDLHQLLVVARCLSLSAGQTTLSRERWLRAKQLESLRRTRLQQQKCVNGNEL
UniProt Q86V88: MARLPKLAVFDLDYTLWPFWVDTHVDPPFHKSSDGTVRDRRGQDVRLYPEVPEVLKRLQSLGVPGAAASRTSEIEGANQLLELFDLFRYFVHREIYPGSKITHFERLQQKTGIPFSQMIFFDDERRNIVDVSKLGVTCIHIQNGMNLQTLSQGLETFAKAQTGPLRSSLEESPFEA
UniProt Q9HCE5: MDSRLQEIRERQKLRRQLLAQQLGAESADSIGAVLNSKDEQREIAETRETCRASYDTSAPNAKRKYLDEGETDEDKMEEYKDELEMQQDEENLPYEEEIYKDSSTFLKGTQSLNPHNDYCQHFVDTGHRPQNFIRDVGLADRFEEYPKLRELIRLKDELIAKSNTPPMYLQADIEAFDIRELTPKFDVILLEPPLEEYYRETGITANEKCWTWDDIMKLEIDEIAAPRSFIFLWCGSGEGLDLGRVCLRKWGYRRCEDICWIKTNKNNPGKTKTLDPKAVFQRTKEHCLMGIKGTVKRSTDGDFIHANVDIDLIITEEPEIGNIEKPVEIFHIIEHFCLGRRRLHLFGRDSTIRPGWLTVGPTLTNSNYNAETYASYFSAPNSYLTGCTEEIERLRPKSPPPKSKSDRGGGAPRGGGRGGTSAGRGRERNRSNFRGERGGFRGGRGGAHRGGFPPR
UniProt O75448: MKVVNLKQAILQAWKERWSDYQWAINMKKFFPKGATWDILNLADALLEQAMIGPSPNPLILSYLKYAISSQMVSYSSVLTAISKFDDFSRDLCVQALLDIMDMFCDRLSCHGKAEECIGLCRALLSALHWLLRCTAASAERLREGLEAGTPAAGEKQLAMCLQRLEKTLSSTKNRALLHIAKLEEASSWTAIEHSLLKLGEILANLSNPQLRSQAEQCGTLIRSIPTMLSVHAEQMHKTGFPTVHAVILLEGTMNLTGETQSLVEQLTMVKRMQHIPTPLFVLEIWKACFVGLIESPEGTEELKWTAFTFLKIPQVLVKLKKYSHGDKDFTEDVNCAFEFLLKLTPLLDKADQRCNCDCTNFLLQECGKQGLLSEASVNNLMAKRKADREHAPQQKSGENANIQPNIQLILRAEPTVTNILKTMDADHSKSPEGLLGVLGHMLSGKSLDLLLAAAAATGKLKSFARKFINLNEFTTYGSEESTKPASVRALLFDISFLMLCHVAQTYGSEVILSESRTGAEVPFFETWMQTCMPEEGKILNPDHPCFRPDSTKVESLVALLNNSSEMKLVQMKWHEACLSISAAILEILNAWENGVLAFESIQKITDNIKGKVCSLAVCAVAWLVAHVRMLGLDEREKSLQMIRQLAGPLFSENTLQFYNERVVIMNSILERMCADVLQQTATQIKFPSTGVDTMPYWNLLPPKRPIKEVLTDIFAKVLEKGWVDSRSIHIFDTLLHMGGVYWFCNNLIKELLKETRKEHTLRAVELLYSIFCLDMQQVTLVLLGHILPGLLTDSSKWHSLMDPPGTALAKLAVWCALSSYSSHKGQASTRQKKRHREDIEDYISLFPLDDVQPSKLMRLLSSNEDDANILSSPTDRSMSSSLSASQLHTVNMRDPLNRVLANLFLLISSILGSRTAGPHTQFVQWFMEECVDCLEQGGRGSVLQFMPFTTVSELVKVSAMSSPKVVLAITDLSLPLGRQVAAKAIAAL
UniProt P23368: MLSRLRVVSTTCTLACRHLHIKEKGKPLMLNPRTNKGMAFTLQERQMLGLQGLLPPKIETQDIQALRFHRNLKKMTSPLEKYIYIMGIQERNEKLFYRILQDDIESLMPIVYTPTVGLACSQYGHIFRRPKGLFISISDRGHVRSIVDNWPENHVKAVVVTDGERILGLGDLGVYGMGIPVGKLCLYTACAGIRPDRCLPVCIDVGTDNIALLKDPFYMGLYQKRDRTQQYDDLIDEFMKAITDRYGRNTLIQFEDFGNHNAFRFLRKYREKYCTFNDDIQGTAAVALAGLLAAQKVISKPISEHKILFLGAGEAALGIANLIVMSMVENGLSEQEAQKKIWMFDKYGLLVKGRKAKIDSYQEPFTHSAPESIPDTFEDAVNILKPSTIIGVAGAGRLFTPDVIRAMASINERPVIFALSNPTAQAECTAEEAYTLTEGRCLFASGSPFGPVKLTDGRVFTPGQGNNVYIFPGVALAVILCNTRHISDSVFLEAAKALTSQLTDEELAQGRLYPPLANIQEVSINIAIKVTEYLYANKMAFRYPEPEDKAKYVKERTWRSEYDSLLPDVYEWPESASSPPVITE
UniProt Q96PE7: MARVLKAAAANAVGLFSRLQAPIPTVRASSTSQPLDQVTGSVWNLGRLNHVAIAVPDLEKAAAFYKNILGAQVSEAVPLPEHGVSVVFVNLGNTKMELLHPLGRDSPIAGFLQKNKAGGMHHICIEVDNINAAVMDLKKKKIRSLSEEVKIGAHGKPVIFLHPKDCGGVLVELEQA
UniProt Q6P2C8: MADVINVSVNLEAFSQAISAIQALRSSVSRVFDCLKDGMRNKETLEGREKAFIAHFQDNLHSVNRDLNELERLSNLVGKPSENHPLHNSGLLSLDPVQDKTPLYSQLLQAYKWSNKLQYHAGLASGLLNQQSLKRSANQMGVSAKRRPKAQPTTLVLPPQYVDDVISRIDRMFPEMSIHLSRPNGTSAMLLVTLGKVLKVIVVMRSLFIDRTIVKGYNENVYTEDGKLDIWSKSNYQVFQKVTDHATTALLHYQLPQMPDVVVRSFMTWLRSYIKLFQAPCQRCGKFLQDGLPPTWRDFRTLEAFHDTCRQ
UniProt P49736, whole entry, looked up: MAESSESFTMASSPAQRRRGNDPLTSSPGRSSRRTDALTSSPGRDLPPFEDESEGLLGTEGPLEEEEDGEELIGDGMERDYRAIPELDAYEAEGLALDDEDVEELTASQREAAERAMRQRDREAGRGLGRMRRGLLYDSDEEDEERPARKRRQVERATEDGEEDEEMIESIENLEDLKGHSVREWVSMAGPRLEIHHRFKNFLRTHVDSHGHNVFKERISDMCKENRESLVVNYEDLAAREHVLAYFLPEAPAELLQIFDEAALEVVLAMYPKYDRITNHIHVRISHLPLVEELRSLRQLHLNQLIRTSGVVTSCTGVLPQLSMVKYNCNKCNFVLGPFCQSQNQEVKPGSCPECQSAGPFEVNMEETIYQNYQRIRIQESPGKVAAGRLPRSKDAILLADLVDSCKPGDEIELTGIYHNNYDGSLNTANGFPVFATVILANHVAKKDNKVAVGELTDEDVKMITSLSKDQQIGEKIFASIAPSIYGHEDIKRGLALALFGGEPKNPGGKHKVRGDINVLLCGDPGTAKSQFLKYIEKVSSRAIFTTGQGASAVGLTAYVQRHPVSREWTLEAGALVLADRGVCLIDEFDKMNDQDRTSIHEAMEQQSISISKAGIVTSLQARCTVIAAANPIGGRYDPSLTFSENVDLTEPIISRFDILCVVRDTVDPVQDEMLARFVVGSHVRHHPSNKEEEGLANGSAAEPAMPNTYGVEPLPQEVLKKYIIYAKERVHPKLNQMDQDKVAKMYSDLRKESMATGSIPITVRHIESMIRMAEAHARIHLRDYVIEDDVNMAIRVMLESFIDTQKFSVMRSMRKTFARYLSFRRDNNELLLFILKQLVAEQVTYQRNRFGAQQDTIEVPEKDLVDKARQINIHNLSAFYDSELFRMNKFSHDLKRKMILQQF
UniProt Q14566: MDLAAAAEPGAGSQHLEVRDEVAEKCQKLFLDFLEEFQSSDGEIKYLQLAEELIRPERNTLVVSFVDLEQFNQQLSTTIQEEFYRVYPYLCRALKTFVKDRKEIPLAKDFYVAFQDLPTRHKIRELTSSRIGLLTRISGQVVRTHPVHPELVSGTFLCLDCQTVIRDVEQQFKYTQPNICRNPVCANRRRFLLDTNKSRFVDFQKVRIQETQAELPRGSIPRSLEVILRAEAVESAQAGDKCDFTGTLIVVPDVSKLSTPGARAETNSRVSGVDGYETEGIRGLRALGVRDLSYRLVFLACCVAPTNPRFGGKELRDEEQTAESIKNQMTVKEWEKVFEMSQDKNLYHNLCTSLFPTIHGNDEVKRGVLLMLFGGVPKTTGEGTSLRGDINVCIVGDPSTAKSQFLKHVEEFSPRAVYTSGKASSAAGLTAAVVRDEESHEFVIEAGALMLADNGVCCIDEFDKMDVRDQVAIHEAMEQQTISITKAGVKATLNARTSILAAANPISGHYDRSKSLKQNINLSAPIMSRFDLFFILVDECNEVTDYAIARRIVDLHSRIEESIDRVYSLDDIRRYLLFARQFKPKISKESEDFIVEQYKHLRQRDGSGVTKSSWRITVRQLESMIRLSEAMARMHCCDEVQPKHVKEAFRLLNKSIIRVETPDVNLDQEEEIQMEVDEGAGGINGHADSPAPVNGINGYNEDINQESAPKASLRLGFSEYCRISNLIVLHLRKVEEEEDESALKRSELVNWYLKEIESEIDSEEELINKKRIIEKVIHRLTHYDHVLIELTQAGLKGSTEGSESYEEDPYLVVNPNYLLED
UniProt P61244, whole entry, looked up: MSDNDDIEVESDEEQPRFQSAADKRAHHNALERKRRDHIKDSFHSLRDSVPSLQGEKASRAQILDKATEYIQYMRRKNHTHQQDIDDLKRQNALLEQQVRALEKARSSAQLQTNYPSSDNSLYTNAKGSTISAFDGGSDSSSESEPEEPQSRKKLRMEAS
UniProt Q9HCC0: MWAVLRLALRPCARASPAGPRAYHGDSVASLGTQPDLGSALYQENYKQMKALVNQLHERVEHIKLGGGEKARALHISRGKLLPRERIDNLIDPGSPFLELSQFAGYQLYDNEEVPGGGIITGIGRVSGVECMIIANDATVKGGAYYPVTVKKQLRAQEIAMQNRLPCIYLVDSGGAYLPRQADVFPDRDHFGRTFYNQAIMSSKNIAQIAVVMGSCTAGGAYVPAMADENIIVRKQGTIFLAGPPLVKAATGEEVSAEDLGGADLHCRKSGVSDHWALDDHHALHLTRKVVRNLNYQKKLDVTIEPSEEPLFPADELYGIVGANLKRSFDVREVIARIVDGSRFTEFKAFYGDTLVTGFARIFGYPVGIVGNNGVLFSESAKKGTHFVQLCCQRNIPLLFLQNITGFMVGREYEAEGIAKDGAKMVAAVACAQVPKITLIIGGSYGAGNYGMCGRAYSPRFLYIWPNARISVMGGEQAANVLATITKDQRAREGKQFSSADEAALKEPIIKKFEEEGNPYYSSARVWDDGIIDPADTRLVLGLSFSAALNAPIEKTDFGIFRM
UniProt Q07820, whole entry, looked up: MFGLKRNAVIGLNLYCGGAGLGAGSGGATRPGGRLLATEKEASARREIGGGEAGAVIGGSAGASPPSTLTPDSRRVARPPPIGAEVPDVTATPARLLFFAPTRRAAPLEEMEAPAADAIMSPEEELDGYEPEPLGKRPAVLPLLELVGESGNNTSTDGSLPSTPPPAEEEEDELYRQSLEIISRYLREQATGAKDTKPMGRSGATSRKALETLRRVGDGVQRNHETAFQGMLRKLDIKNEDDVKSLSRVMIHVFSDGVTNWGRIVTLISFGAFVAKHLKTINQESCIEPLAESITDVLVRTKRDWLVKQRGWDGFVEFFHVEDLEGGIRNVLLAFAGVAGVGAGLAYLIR
UniProt Q6P9B6: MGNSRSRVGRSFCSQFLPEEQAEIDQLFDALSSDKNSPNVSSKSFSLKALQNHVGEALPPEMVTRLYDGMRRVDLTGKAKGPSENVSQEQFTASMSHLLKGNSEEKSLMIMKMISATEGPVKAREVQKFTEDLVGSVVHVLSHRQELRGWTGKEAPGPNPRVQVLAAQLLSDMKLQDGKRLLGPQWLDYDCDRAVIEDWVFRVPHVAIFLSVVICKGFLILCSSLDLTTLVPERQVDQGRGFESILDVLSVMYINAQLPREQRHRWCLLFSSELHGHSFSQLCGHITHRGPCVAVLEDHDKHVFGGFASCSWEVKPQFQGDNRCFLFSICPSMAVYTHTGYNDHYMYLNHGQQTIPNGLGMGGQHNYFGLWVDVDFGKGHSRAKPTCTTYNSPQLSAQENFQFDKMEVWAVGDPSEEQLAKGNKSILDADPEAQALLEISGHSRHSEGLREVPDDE

Legend:
Assay in all cases: log2 fold change, soluble protein after heating vs DMSO (PISA); higher = thermal stabilisation; K562 lysate, 10 uM; active = over 0.2 and 3.5 SD of the protein, either way, in both replicates (recomputed)
erlotinib = compound: C#Cc1cccc(Nc2ncnc3cc(OCCOC)c(OCCOC)cc23)c1 [erlotinib]
Summary of the method: (§1)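 Following dounce homogenisation of K562 pellets in PBS pH 7.4 with 1 mM MgCl2, crude extract at 1 mg/mL protein was incubated for 30 min with 10 μM compound. Aliquots were then heated for 3 min over 48°C-58°C and pooled, NP-40 was added to 0.5% at 4°C, and soluble protein was recovered as the supernatant at 21,000xg for 90 min. Channel-sum-equalised TMTpro 16plex LC-MS/MS quantified this protein. Each value, from duplicates, is a log-two fold change in thermal stability relative to solvent controls.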

[1] = compound: C/C(=N\NC(=O)C1=CC(=CC=C1)S(=O)(=O)N2CCOCC2)/C3=C(C=CC(=C3)Cl)O
Summary of the method: as §1

[2] = compound: C1=CC(=CC=C1C2=NC3=C(N2)C=C(C=C3)C(=O)N)OC4=CC=C(C=C4)Cl
Summary of the method: as §1

[3] = compound: C1=CC2=C(C=CC(=C2)/C=C\3/C(=O)NC(=NCC4=CC=CS4)S3)N=C1
Summary of the method: as §1

[4] = compound: C1=CC2=NC=CN=C2C=C1/C=C/3\C(=O)NC(=O)S3
Summary of the method: as §1

[5] = compound: C1=CC=C(C=C1)C2=NC(=C(N2)C3=CC=NC=C3)C4=CC(=C(C=C4)Cl)O
Summary of the method: as §1

[6] = compound: C1=CC=C2C(=C1)C3=NNC4=CC=CC(=C43)C2=O
Summary of the method: as §1

[7] = compound: C1CCN(C1)C(=O)NC2=CC=CC(=C2)NC3=NC=C(C(=N3)NCCC4=CN=CN4)Br
Summary of the method: as §1

[8] = compound: C1CN(CCC1(CC2=CC=C(C=C2)Cl)N)C3=NC=NC4=C3C=CN4
Summary of the method: as §1

IRAK-1-4 Inhibitor I = compound: C1COCCN1CCN2C3=CC=CC=C3N=C2NC(=O)C4=CC(=CC=C4)[N+](=O)[O-] [IRAK-1-4 Inhibitor I]
Summary of the method: as §1

Measured: log2 fold change

MCUR1 (UniProt Q96AQ8)
inactive: erlotinib -0.026 | [1] 0.002 | [2] 0.018 | [3] 0.019 | [4] -0.003 | [5] 0 | [6] -0.007 | [7] 0 | [8] 0.012 | IRAK-1-4 Inhibitor I -0.033

MCMBP (UniProt Q9BTE3)
inactive: erlotinib 0.038 | [1] 0.069 | [2] 0.024 | [3] 0.063 | [4] 0.01 | [5] -0.017 | [6] 0.001 | [7] -0.023 | [8] 0.072 | IRAK-1-4 Inhibitor I 0

MDP1 (UniProt Q86V88)
inactive: erlotinib 0.01 | [1] -0.036 | [2] 0 | [3] 0.018 | [4] -0.012 | [5] -0.024 | [6] 0 | [7] 0.013 | [8] 0.06 | IRAK-1-4 Inhibitor I 0

METTL14 (UniProt Q9HCE5)
inactive: erlotinib 0.006 | [1] 0.037 | [2] 0.032 | [3] -0.02 | [4] -0.053 | [5] 0.043 | [6] -0.005 | [7] -0.009 | [8] 0.011 | IRAK-1-4 Inhibitor I -0.009

MED24 (UniProt O75448)
inactive: erlotinib 0.01 | [1] 0.042 | [2] 0.013 | [3] -0.02 | [4] -0.036 | [5] 0 | [6] -0.05 | [7] -0.017 | [8] 0.005 | IRAK-1-4 Inhibitor I 0.038

MED16 (UniProt Q9Y2X0)
inactive: erlotinib 0.018 | [1] -0.033 | [2] 0.001 | [3] 0.019 | [4] -0.011 | [5] 0.008 | [6] -0.071 | [7] 0.01 | [8] -0.045 | IRAK-1-4 Inhibitor I -0.001

MBLAC2 (UniProt Q68D91)
inactive: erlotinib -0.052 | [1] -0.042 | [2] 0.01 | [3] -0.055 | [4] 0.012 | [5] 0.018 | [6] 0.065 | [7] 0.026 | [8] -0.007 | IRAK-1-4 Inhibitor I -0.027

Copied from the entries so far (six entries):
MCUR1 (UniProt Q96AQ8)
inactive: erlotinib -0.026 | [1] 0.002 | [2] 0.018 | [3] 0.019 | [4] -0.003 | [5] 0 | [6] -0.007 | [7] 0 | [8] 0.012 | IRAK-1-4 Inhibitor I -0.033

MCMBP (UniProt Q9BTE3)
inactive: erlotinib 0.038 | [1] 0.069 | [2] 0.024 | [3] 0.063 | [4] 0.01 | [5] -0.017 | [6] 0.001 | [7] -0.023 | [8] 0.072 | IRAK-1-4 Inhibitor I 0

MDP1 (UniProt Q86V88)
inactive: erlotinib 0.01 | [1] -0.036 | [2] 0 | [3] 0.018 | [4] -0.012 | [5] -0.024 | [6] 0 | [7] 0.013 | [8] 0.06 | IRAK-1-4 Inhibitor I 0

METTL14 (UniProt Q9HCE5)
inactive: erlotinib 0.006 | [1] 0.037 | [2] 0.032 | [3] -0.02 | [4] -0.053 | [5] 0.043 | [6] -0.005 | [7] -0.009 | [8] 0.011 | IRAK-1-4 Inhibitor I -0.009

MED24 (UniProt O75448)
inactive: erlotinib 0.01 | [1] 0.042 | [2] 0.013 | [3] -0.02 | [4] -0.036 | [5] 0 | [6] -0.05 | [7] -0.017 | [8] 0.005 | IRAK-1-4 Inhibitor I 0.038

MED16 (UniProt Q9Y2X0)
inactive: erlotinib 0.018 | [1] -0.033 | [2] 0.001 | [3] 0.019 | [4] -0.011 | [5] 0.008 | [6] -0.071 | [7] 0.01 | [8] -0.045 | IRAK-1-4 Inhibitor I -0.001

(continued)

MBIP (UniProt Q9NS73)
inactive: erlotinib 0.002 | [1] -0.018 | [2] 0.065 | [3] -0.183 | [4] -0.126 | [5] -0.078 | [6] -0.166 | [7] -0.188 | [8] -0.007 | IRAK-1-4 Inhibitor I -0.024

MFAP1 (UniProt P55081)
inactive: erlotinib -0.016 | [1] -0.028 | [2] 0.074 | [3] -0.026 | [4] -0.04 | [5] 0.025 | [6] -0.021 | [7] -0.004 | [8] -0.036 | IRAK-1-4 Inhibitor I -0.002

ME2 (UniProt P23368)
inactive: erlotinib -0.032 | [1] 0.013 | [2] -0.019 | [3] 0.013 | [4] -0.027 | [5] -0.009 | [6] 0.038 | [7] -0.039 | [8] 0.023 | IRAK-1-4 Inhibitor I -0.012

MBOAT7 (UniProt Q96N66)
inactive: erlotinib 0.017 | [1] 0.018 | [2] -0.028 | [3] -0.018 | [4] 0.012 | [5] -0.045 | [6] -0.059 | [7] 0.011 | [8] -0.007 | IRAK-1-4 Inhibitor I 0.017

MCEE (UniProt Q96PE7)
inactive: erlotinib -0.001 | [1] 0.017 | [2] 0.039 | [3] 0.019 | [4] 0.006 | [5] -0.02 | [6] -0.076 | [7] -0.057 | [8] 0.095 | IRAK-1-4 Inhibitor I -0.058

MED10 (UniProt Q9BTT4)
inactive: erlotinib 0.049 | [1] -0.077 | [2] 0.044 | [3] 0.028 | [4] -0.149 | [5] -0.015 | [6] 0.029 | [7] 0.102 | [8] 0.101 | IRAK-1-4 Inhibitor I -0.022

MEGF9 (UniProt Q9H1U4)
inactive: erlotinib 0.142 | [1] -0.145 | [2] -0.198 | [3] 0.01 | [4] -0.009 | [5] 0.048 | [6] -0.108 | [7] -0.044 | [8] 0.125 | IRAK-1-4 Inhibitor I 0.083

MERTK (UniProt Q12866)
inactive: erlotinib 0.002 | [1] -0.004 | [2] -0.111 | [3] 0.018 | [4] -0.199 | [5] -0.012 | [6] 0 | [7] -0.047 | [8] -0.03 | IRAK-1-4 Inhibitor I 0.027

MED27 (UniProt Q6P2C8)
inactive: erlotinib 0.02 | [1] -0.013 | [2] -0.001 | [3] 0 | [4] -0.004 | [5] 0 | [6] -0.018 | [7] -0.041 | [8] 0.034 | IRAK-1-4 Inhibitor I 0.048

MAVS (UniProt Q7Z434)
inactive: erlotinib 0.024 | [1] -0.02 | [2] 0 | [3] -0.007 | [4] 0.04 | [5] -0.002 | [6] -0.04 | [7] 0 | [8] 0.021 | IRAK-1-4 Inhibitor I 0.044

MEIS2 (UniProt O14770)
inactive: erlotinib 0.023 | [1] -0.074 | [2] -0.047 | [3] 0.008 | [4] -0.034 | [5] -0.001 | [6] 0.011 | [7] -0.111 | [8] -0.032 | IRAK-1-4 Inhibitor I -0.06

MEF2A (UniProt Q02078)
inactive: erlotinib 0.002 | [1] 0.001 | [2] 0.025 | [3] 0 | [4] -0.096 | [5] -0.059 | [6] -0.063 | [7] 0.171 | [8] 0.216 | IRAK-1-4 Inhibitor I 0.09

MCM2 (UniProt P49736)
inactive: erlotinib 0.02 | [1] -0.021 | [2] -0.003 | [3] 0.006 | [4] 0.002 | [5] -0.001 | [6] -0.001 | [7] -0.014 | [8] 0.011 | IRAK-1-4 Inhibitor I 0.002

MDC1 (UniProt Q14676)
inactive: erlotinib -0.012 | [1] 0.005 | [2] 0.028 | [3] 0.008 | [4] -0.016 | [5] -0.018 | [6] -0.034 | [7] -0.008 | [8] 0.007 | IRAK-1-4 Inhibitor I 0.021

MECP2 isoform 2 (UniProt P51608)
inactive: erlotinib -0.007 | [1] -0.245 | [2] 0.004 | [3] 0.004 | [4] 0.035 | [5] 0.022 | [6] 0.026 | [7] -0.036 | [8] 0.053 | IRAK-1-4 Inhibitor I 0.012

MCM6 (UniProt Q14566)
inactive: erlotinib -0.011 | [1] -0.015 | [2] -0.003 | [3] -0.015 | [4] -0.006 | [5] -0.002 | [6] 0.006 | [7] -0.006 | [8] -0.038 | IRAK-1-4 Inhibitor I -0.015

MCCC1 (UniProt Q96RQ3)
inactive: erlotinib 0.037 | [1] -0.028 | [2] 0.048 | [3] -0.052 | [4] 0.025 | [5] -0.029 | [6] -0.085 | [7] -0.022 | [8] 0.077 | IRAK-1-4 Inhibitor I -0.008

MAX (UniProt P61244)
inactive: erlotinib -0.013 | [1] -0.019 | [2] -0.01 | [3] -0.043 | [4] -0.029 | [5] -0.095 | [6] -0.019 | [7] 0.044 | [8] -0.031 | IRAK-1-4 Inhibitor I 0.059

MCCC2 (UniProt Q9HCC0)
inactive: erlotinib -0.003 | [1] -0.065 | [2] 0.018 | [3] 0.02 | [4] -0.027 | [5] 0.002 | [6] -0.025 | [7] -0.002 | [8] -0.019 | IRAK-1-4 Inhibitor I 0.005

MCL1 (UniProt Q07820)
inactive: erlotinib -0.099 | [1] -0.004 | [2] 0.208 | [3] -0.181 | [4] 0.036 | [5] -0.065 | [6] 0.151 | [7] -0.055 | [8] -0.043 | IRAK-1-4 Inhibitor I -0.015

MEAK7 (UniProt Q6P9B6)
inactive: erlotinib 0.013 | [1] 0.051 | [2] 0.017 | [3] -0.03 | [4] -0.004 | [5] -0.023 | [6] -0.018 | [7] 0 | [8] 0.001 | IRAK-1-4 Inhibitor I 0.051

MCRIP1 (UniProt I3L4Q0)
inactive: erlotinib -0.02 | [1] -0.044 | [2] 0.022 | [3] 0.019 | [4] 0.035 | [5] -0.027 | [6] 0.022 | [7] 0.058 | [8] 0.076 | IRAK-1-4 Inhibitor I 0.037

MATR3 (UniProt P43243)
inactive: erlotinib -0.018 | [1] 0.01 | [2] 0.094 | [3] -0.035 | [4] 0.01 | [5] -0.055 | [6] -0.03 | [7] 0.014 | [8] -0.004 | IRAK-1-4 Inhibitor I -0.013
